# Library screening results

Each number is a percent effect as filed.
The controls that fix the scale are not given in the record; negative values are as filed.
Compounds were drawn at random from those tested, without regard to their results.

Mtb growth Cornell: 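Whole-cell assay for inhibitors of Mycobacterium tuberculosis growth, labelled Cornell in the record; the read-out is not stated. The concentration is filed as 10 mM, unlikely as a test dose, so the dose is not known. The record gives no direction; compounds strong in two other growth screens of this library score well above the rest, so higher reads as stronger inhibition. Of about 53,000 compounds tested this way, about 900 (1.7%) reached 50% or more in at least one test.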
Mtb heat-shock: 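Assay on Mycobacterium tuberculosis, filed only as a heat shock assay from Cornell; the read-out is not stated. The concentration is filed as 10 mM, unlikely as a test dose, so the dose is not known. Direction is inferred from retests: higher values go with stronger inhibition. Of about 69,000 compounds tested this way, about 930 (1.4%) reached 50% or more in at least one test.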

{"compound": "CN(Cc1nnc2ccccn12)C(=O)NC1CCCCC1", "Mtb growth Cornell": 26.66, "Mtb heat-shock": -6.124}
{"compound": "Cc1ccc(C2CN(Cc3cnc(-c4ccccn4)s3)CCO2)o1", "stereo": "stereo not shown", "Mtb growth Cornell": 17.19, "Mtb heat-shock": 34.58}
{"compound": "CCn1ccnc1CN1CCCN(C(=O)c2cc[nH]n2)CC1", "Mtb heat-shock": 2.431}
{"compound": "CCOc1ccccc1C(CC(=O)Nc1ncc(C)s1)NC(C)=O", "stereo": "stereo not shown", "Mtb heat-shock": -39.79}
{"compound": "COCCN1CCC(NC(=O)Nc2cccc(F)c2)C1", "stereo": "stereo not shown", "Mtb growth Cornell": 1.383, "Mtb heat-shock": -5.069}
{"compound": "Cc1ccc(C2CSCCN2C(=O)c2cnsn2)o1", "stereo": "stereo not shown", "Mtb growth Cornell": 0.525, "Mtb heat-shock": -14.64}
{"compound": "NC(c1ccccc1)c1ccc(OC(F)F)cc1", "stereo": "stereo not shown", "Mtb growth Cornell": 11.06, "Mtb heat-shock": -1.357}
{"compound": "N#Cc1c(N)nc2c(c1-c1c[nH]nc1C1CCCCC1)CNCC2", "Mtb heat-shock": -2.129}
{"compound": "CN(CCc1ccccc1)Cc1cc(C(=O)N2CCSCC2)no1", "Mtb growth Cornell": 8.949, "Mtb heat-shock": -22.31}
{"compound": "COc1ccc(F)cc1C(=O)N(C)[C@@H]1CC[C@@H](O)[C@@H]1O", "Mtb growth Cornell": -49.76, "Mtb heat-shock": 6.628}
{"compound": "Cc1c(NCCCOc2cccc(C#N)c2)cccc1C(N)=O", "Mtb heat-shock": -23.09}
{"compound": "Cc1cc(C(=O)NC2CCN(CC(N)=O)CC2)nn1C(C)(C)C", "Mtb growth Cornell": 11.5, "Mtb heat-shock": 61.29}
{"compound": "COc1cccc(OC)c1C(=O)N1CCN(c2ccccc2F)CC1", "Mtb heat-shock": -22.54}
{"compound": "CC(C)c1noc(C(C)S(=O)(=O)Cc2nc(C3CC3)no2)n1", "stereo": "stereo not shown", "Mtb growth Cornell": 23.21, "Mtb heat-shock": -2.105}
{"compound": "Cc1nc(CN2CCC3(CC2)CC(c2cccnc2)C(=O)N3C)cs1.O=C(O)C(F)(F)F.O=C(O)C(F)(F)F", "stereo": "stereo not shown", "Mtb growth Cornell": -7.498, "Mtb heat-shock": 40.95}
{"compound": "Cc1cnn(CC2CCCN2C(=O)c2csc(C3CC3)n2)c1", "stereo": "stereo not shown", "Mtb heat-shock": 1.688}
{"compound": "Cn1nccc1-c1nc2c(cc1C(=O)O)CCN(C(=O)C1CC1)CC2.O=C(O)C(F)(F)F", "Mtb growth Cornell": 5.796, "Mtb heat-shock": -0.9499}
{"compound": "CN1CCN(C[C@@H]2CN(C(=O)NCC3CCCCC3)C[C@@H]2CO)CC1", "Mtb growth Cornell": -13.41, "Mtb heat-shock": -14.11}
{"compound": "Clc1ccc(N2CCC(C3CCN(Cc4cccnc4)CC3)C2)nc1", "stereo": "stereo not shown", "Mtb growth Cornell": 6.658, "Mtb heat-shock": 0.9494}
{"compound": "CCOC(=O)Cn1c(=O)nc2n1C(=O)N(c1ccccc1)C2", "Mtb growth Cornell": -0.8928, "Mtb heat-shock": 1.279}
{"compound": "Cc1noc(C)c1CN1CCCC2(CCN(C(=O)C3CC3)C2)C1", "stereo": "stereo not shown", "Mtb growth Cornell": -10.76, "Mtb heat-shock": 3.247}
{"compound": "NC(=O)c1cnn2c(C3CCN(CCO)CC3)ccnc12", "Mtb growth Cornell": 14.31, "Mtb heat-shock": -1.577}
{"compound": "O=C(Cc1ccccn1)N1CCc2nc(-c3cnccn3)nc(O)c2C1", "Mtb growth Cornell": 11.69, "Mtb heat-shock": -32.69}
{"compound": "CCn1cc2c(n1)CN(Cc1sccc1C)CC2COCC1CC1.O=C(O)C(F)(F)F", "stereo": "stereo not shown", "Mtb growth Cornell": 57.43, "Mtb heat-shock": 6.431}
{"compound": "Nc1cc2c(nn1)CCN(C(=O)c1ccccc1Oc1cccnc1)C2", "Mtb growth Cornell": -19.22, "Mtb heat-shock": -2.595}
{"compound": "Cc1cc(O)nc(C2CCCNC2)n1.Cl", "stereo": "stereo not shown", "Mtb growth Cornell": 8.37, "Mtb heat-shock": -16.33}
{"compound": "O=C(c1nn(-c2ccccc2F)cc1O)N1CCC2(CC1)OCCO2", "Mtb heat-shock": -15.2}
{"compound": "Cc1noc(C)c1-c1ccc(C2CCCN2C(=O)Cn2ccnc2)nc1", "stereo": "stereo not shown", "Mtb growth Cornell": -41.85, "Mtb heat-shock": -17.44}
{"compound": "COc1ccc(NC(=O)CSc2ccc3nncn3n2)c(OC)c1", "Mtb growth Cornell": 9.713, "Mtb heat-shock": 2.397}
{"compound": "COC(=O)C(C)(C)NC(=O)c1cnc(C(C)(C)C)s1", "Mtb growth Cornell": -23.25, "Mtb heat-shock": -16.2}
{"compound": "CNC(=O)[C@@H](c1ccccc1F)N1CCC[C@H]1C(=O)NC1CCOCC1.Cl", "Mtb growth Cornell": 13.96, "Mtb heat-shock": 9.18}
{"compound": "CC(=O)N1CCC(c2n[nH]c3nccnc23)CC1", "Mtb heat-shock": -1.976}
{"compound": "Cc1ncsc1C(=O)N1CCCCC1c1cc2nc(C)c(C)c(O)n2n1", "stereo": "stereo not shown", "Mtb growth Cornell": -14.96, "Mtb heat-shock": -18.91}
{"compound": "CC(=O)N(Cc1noc(C)n1)C1CCN(Cc2ccccc2C#N)C1", "stereo": "stereo not shown", "Mtb heat-shock": -12.06}
{"compound": "CCOCCn1nc(C)cc1C(=O)N1CCN(C(C)C)C(CC)C1", "stereo": "stereo not shown", "Mtb heat-shock": -22.97}
{"compound": "COc1ccc2[nH]cc(C(=O)N3C[C@@H](O)[C@H](N4CCOCC4)C3)c2c1", "Mtb growth Cornell": 1.799, "Mtb heat-shock": 19.08}
{"compound": "Cn1ccc(C(=O)N2CCCCC23CC(=O)N(Cc2ccccc2)C3)n1", "stereo": "stereo not shown", "Mtb heat-shock": 10.24}
{"compound": "O=S(=O)(c1cn[nH]c1)N1CCC(O)(CN2CCC(F)(F)CC2)C1", "stereo": "stereo not shown", "Mtb growth Cornell": 15.97, "Mtb heat-shock": -3.087}
{"compound": "Cc1nc(C)c(CC(=O)NCc2ccc(F)cc2F)s1", "Mtb growth Cornell": -45.96, "Mtb heat-shock": 18.5}
{"compound": "[H][C@@]12CCCO[C@]1([H])[C@H](NC(=O)c1cnccn1)CN2c1ncccn1", "Mtb growth Cornell": 24.31, "Mtb heat-shock": 22.06}

For reference, 2 entries once more:

* Cc1ccc(C2CSCCN2C(=O)c2cnsn2)o1 (stereo not shown) : Mtb growth Cornell: 0.525%; Mtb heat-shock: -14.64%
* CC(=O)N(Cc1noc(C)n1)C1CCN(Cc2ccccc2C#N)C1 (stereo not shown) : Mtb heat-shock: -12.06%

The values are deposited in ChEMBL (CHEMBL3988442, “University of Dundee, Small-Polar-MMV Screening Library” (2021)).